In this data set the test system is CqsRp. Conditions: for Ethanolamine concentration in purified CqsRp: 103.3 μM CqsRp, after overexpression in E. coli and purification, average.

“And” between values parts separate entries of the source, which are not always exact repeats. Identical values can stand only once. Like-named read-outs stand apart in the source and are kept apart here.

In the case of `NCCO` [Ethanolamine, ethanolamine], the “Ethanolamine concentration in purified CqsRp” value stood at 83.9 ± 2.6 µM. For the same molecule, for the setting “103 µM purified CqsRp, single replicates”, the “Concentration” value was 81.2 mM and 85.0 mM and 85.6 mM. Moreover, where the note is “listed as ethanolamine”, the “Ethanolamine concentration in purified CqsRp” value was 83.9 µM.

Source of the values: article PMC12410723, “Structure-function studies of Vibrio cholerae quorum-sensing receptor CqsR signal recognition” (PLOS Pathogens, 2025).
